From PMC9454446
No constants are given. Whether binding was seen depends on the method and setting. For some assays here: In cells and extracts the contact can be indirect. Some entries that bind do so weakly or less than the wild type. For some assays here: Tags and fused reporters may be left off the sequences shown. One block for each molecule: values may come before it.

The chains behind the UniProt entries cited, without tags or fusion partners. Residues count along the entry.
UniProt P01375: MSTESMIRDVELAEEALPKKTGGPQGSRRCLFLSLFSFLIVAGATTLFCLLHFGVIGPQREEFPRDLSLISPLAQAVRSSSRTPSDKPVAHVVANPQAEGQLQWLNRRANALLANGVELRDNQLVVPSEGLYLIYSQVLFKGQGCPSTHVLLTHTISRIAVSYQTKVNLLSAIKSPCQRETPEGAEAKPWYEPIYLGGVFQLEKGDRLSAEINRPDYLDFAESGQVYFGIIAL
UniProt P21926: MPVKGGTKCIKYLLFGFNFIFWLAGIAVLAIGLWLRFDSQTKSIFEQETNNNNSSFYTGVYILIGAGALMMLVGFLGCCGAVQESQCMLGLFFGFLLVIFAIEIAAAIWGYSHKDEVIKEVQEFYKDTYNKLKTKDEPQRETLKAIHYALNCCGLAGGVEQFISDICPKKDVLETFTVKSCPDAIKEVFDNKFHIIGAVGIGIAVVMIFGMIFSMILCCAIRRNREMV
UniProt P78536, residues 215-824: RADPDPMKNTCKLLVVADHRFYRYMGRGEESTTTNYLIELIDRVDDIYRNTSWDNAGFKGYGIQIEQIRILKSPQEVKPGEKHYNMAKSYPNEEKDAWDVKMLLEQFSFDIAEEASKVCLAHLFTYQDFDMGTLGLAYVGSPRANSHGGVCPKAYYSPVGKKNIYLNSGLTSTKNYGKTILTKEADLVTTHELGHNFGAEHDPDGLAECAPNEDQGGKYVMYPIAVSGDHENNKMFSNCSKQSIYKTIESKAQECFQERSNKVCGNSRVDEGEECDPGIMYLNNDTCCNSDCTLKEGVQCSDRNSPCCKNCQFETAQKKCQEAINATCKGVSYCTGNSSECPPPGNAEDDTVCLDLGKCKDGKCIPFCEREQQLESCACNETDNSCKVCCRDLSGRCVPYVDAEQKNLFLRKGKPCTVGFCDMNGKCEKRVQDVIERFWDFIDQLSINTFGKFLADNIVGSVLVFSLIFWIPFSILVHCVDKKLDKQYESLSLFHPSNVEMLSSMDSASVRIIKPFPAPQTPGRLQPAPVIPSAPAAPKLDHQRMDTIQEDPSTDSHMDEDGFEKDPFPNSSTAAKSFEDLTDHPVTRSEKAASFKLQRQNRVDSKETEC

What was measured:
TNFα-YPet = TNFα-YPet (UniProt P01375); test: FRET or BRET; FRET microscopy of live transfected HEK293T cells; Tetraspanin-CyPet as donor, ADAM17-YPet or TNFα-YPet as acceptor; precision FRET after subtraction of spectral bleed through
[1] = molecular target: T1, endogenous Tspan8 (human (endogenous in HT29)) (UniProt P19075); test: co-IP; HT29 cells, unstimulated or stimulated 30 min with 200 nM PMA or 1 µg/mL LPS; lysed in buffer with Brij97 (preserves the tetraspanin web) or digitonin (disrupts secondary interactions); Tspan8 immunoprecipitated with primary antibody and protein G-agarose, immunoblot
T1 sequence: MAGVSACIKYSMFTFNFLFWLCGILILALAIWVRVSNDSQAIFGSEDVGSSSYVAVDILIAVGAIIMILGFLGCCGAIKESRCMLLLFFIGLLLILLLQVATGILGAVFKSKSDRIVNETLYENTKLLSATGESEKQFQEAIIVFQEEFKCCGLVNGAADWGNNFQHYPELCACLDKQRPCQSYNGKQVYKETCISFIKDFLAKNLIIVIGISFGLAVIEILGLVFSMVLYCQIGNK

[2] = molecular target: Tspan8 fused to RFP-A or RFP-B (UniProt P19075); test: red fluorescent protein dimerization assay; transfected HEK293T cells, one protein fused to RFP-A and one to RFP-B; bright RFP hetero-dimer on interaction; confocal imaging of cells on the second day after transfection

Molecule: CD9-CyPet (from UniProt P21926 1-228)
- binding (TNFα-YPet): binds

B3: CD81-CyPet (protein, UniProt P60033 1-236)
chain: MGVEGCTKCIKYLLFVFNFVFWLAGGVILGVALWLRHDPQTTNLLYLELGDKPAPNTFYVGIYILIAVGAVMMFVGFLGCYGAIQESQCLLGTFFTCLVILFACEVAAGIWGFVNKDQIAKDVKQFYDQALQQAVVDDDANNAKAVVKTFHETLDCCGSSTLTALTTSVLKNNLCPSGSNIISNLFKEDCHQKIDDLFSGKLYLIGIAAIVVAVIMIFEMILSMVLCCGIRNSSVY
- binding (TNFα-YPet): no binding

Further lines, results first:

- binding [1]: binds
Molecule: endogenous ADAM17, mature form (from UniProt P78536 215-824) (enzyme)

- binding (TNFα-YPet): binds
B1: Tspan8-CyPet (protein, UniProt P19075 1-237)
chain: T1 sequence

- binding [2]: binds
B2: Tspan8 fused to RFP-A or RFP-B (protein, UniProt P19075 1-237)
chain: T1 sequence
